From patent publication US20250289827A1, “MORPHIC FORMS OF A MUTANT BRAF DEGRADER AND METHODS OF MANUFACTURE THEREOF” (C4 THERAPEUTICS, INC., priority 2022, published 2025)
At least one compound was matched to its structure with a doubt left.

Assays:
[1] = Characterization of salt forms (XRPD, DSC, TGA, KF, HPLC, NMR/IC); assay type: physicochemical
Method: Salt Forms identified in the investigation (Table 16) were further characterized by XRPD, DCS, TGA, KF, HPLC and ^1H NMR/IC (Table 19).
About 419 mg of sodium salt Form F was obtained as off-white solid in 76% yield.

[2] = Solubility in aqueous pH buffers and bio-relevant fluids at 37° C.; assay type: physicochemical; details: residual solid 24 h
Method: Solubility of the Form B and sodium salt Form F was measured in 7 aqueous pH buffers and bio-relevant fluids including pH 1.2 HCl solution (0.2N), pH 4.5 acetate buffer (50 mM), pH 6.8 phosphate buffer (50 mM), pH 2.0 SGF, pH 6.5 FaSSIF-v1, pH 5.0 FeSSIF-v1 and water at 37° C. for 2 h and 24 h, respectively.
Accurate 20 mg of the Form B was weighed into a 20 mL glass vial. Then, 10 mL of solubility medium was added. The sodium salt Form F amount used was equivalent to 20 mg anhydrous form. Obtained suspensions were stirred at 37° C. at 400 rpm and sampled at 2 hours and at 24 hours, respectively. The samples were centrifuged at 37° C. at 4,000 rpm for 4 min. Supernatants were analyzed by HPLC and pH meter for solubility and pH value, respectively. Residual solids (wet cakes) from the 24 hours samples were also characterized by XRPD to determine physical form.

[3] = system: patient-derived xenograft (PDX) of non-small cell lung carcinoma (NSCLC) with BRAF V600E mutation; assay: Efficacy in BRAF V600E NSCLC PDX model; details: single agent; trametinib 0.1 mg/kg PO QD, dabrafenib 100 mg/kg PO QD

**Q.** For CCN(C)S(=O)(=O)[N-]c1ccc(F)c(Oc2ccc3ncn([C@H]4COC5(CCN(C(=O)CC6(O)CCN(c7cc8c(cc7F)c(N7CCC(=O)NC7=O)nn8C)CC6)CC5)C4)c(=O)c3c2)c1C#N.[Na+] [Compound 1 sodium salt Form F], which “Stoichiometric ratio (^1H NMR or IC)” value ([1]; Compound:Na^+, listed as Sodium salt Form F) is on record?
**A.** Na^+ = 1:1.2

**Q.** What about the “Stoichiometry by HPLC or IC” value ([1]; Table 20, batch of Example 24) of the same molecule?
**A.** 1:1.2

**Q.** And the “IC: Compound:Na^+” value ([2]; SGF, pH 2.0)?
**A.** :Na^+ = 1:0.3

**Q.** And the “IC: Compound:Na^+” value ([2]; pH 1.2 HCl solution (0.2N))?
**A.** :Na^+ = 1:0.2

**Q.** With CCN(C)S(=O)(=O)[N-]c1ccc(F)c(Oc2ccc3ncn([C@H]4COC5(CCN(C(=O)CC6(O)CCN(c7cc8c(cc7F)c(N7CCC(=O)NC7=O)nn8C)CC6)CC5)C4)c(=O)c3c2)c1C#N.[Na+] [Compound 1 sodium salt Form D] as the molecule, how does the “Stoichiometric ratio (^1H NMR or IC)” value ([1]; Compound:Na^+, listed as Sodium salt Form D) read?
**A.** Na^+ = 1:1

**Q.** With CCN(C)S(=O)(=O)[N-]c1ccc(F)c(Oc2ccc3ncn([C@H]4COC5(CCN(C(=O)CC6(O)CCN(c7cc8c(cc7F)c(N7CCC(=O)NC7=O)nn8C)CC6)CC5)C4)c(=O)c3c2)c1C#N.[Na+] [Compound 1 sodium salt Form E] as the molecule, how does the “Stoichiometric ratio (^1H NMR or IC)” value ([1]; Compound:Na^+, listed as Sodium salt Form E) read?
**A.** Na^+ = 1:1

**Q.** For CCN(C)S(=O)(=O)[N-]c1ccc(F)c(Oc2ccc3ncn([C@H]4COC5(CCN(C(=O)CC6(O)CCN(c7cc8c(cc7F)c(N7CCC(=O)NC7=O)nn8C)CC6)CC5)C4)c(=O)c3c2)c1C#N.[K+] [Compound 1 potassium salt Form G], which “Stoichiometric ratio (^1H NMR or IC)” value ([1]; Compound:K^+) is on record?
**A.** K^+ = 1:1

**Q.** With CC(=O)Nc1cccc(-n2c(=O)n(C3CC3)c(=O)c3c(Nc4ccc(I)cc4F)n(C)c(=O)c(C)c32)c1 [trametinib] as the molecule, how does the “Status by day 28” value [3] read?
**A.** reached tumor burden endpoint
